# Experimental data: PubChem BioAssay AID2685 (National Center for Advancing Translational Sciences (NCATS), 2010)
# This is one part of the list. These are further read-outs of the screen, such as a control signal, another cell line or another target. No call is given for them. Most of these compounds were active or inconclusive in the main read-out, so they are no random draw. Potencies come from curve fits of mixed quality, noted in brackets.
# Assay: qHTS Assay for Lipid Storage Modulators in Drosophila S3 Cells;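 for cell number change: cells counted by Cell Tracker Red CMTPX staining in the red channel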
# Settings: BODIPY lipid droplet fluorescence, 18-24 h; for cell number change: measured here: cell count max response, cells fed with added oleic acid
# Outline: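 Drosophila S3 cells loaded with oleic acid (400 uM, as added) and compounds at several concentrations; lipid droplets imaged by 488-nm laser-scanning cytometry, 500–530 nm intensity and object ratio to cell channel. Percent activity normalized to 20 uM Triacsin C.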
# [1] = measured here: cell number channel AC50, cells fed with added oleic acid
# [2] = measured here: lipid fluorescence (Fed channel) AC50, cells fed with added oleic acid
Compound,cell number change,AC50 [1],AC50 [2]
Cc1sc(NC(=O)C2=COCCO2)c(C(N)=O)c1C,37.4%,"14.6 µM [rising, partial curve, poor fit]","20.6 µM [rising, partial curve]"
O=C(CCNC(=O)c1ccco1)Nc1cccc(Br)c1,23.1%,–,–
O=C(NC1CCCc2ccccc21)c1cc(F)cc(F)c1 (configuration not stated),18.1%,–,–
Cn1c(=O)c2c(ncn2CC(=O)Nc2ccc(N3CCOCC3)cc2)n(C)c1=O,2.09%,–,"1.64 µM [falling, single point]"
CCN1CCN(C(=O)c2ccc3c(c2)N(Cc2ccccc2F)C(=O)c2ccccc2S3(=O)=O)CC1,–,–,"0.00411 µM [rising, full curve, poor fit]"
COc1cc(NC(=O)C2CC(c3ccccc3Cl)=NO2)cc(OC)c1OC (configuration not stated),-40.4%,"0.0411 µM [falling, full curve, poor fit]",–
COc1ccc2cc(C)c(SCC(=O)Nc3cc(C)on3)nc2c1,26%,–,–
Cc1cc(Oc2cc(N)cc([N+](=O)[O-])c2)ccc1Cl,-55.2%,"2.91 µM [rising, single point]","32.6 µM [falling, single point]"
CC(C)(C)NC(=O)CN(Cc1cccnc1)C(=O)c1csnn1,-21.9%,"0.00731 µM [falling, full curve, poor fit]","6.51 µM [rising, single point]"
CC1CCN(S(=O)(=O)c2ccc3nc(N4CCN(c5ccccc5)CC4)ccc3c2)CC1,-13.7%,–,"14.6 µM [rising, partial curve]"
c1ccc2c(c1)CCc1snnc1-2,20.8%,–,"29.1 µM [rising, single point]"
COc1ccc(NC(=O)CCSc2ccc(C)cc2)cc1,6.59%,–,"0.184 µM [rising, partial curve]"
O=C(/C(=C/O)N=Nc1ccccc1Cl)c1ccccc1,-64.7%,"29.1 µM [falling, single point]","29.1 µM [falling, single point]"
COc1cccc2cc(C(=O)NC(C)C3CCCO3)c(=O)oc12 (configuration not stated),45.6%,"4.11 µM [rising, full curve]",–
NC(=O)c1cc2c3ccccc3ccn2c1-c1ccccc1,-2.44%,–,"29.1 µM [falling, single point]"
O=[N+]([O-])c1cccc(S(=O)(=O)NCCCn2ccnc2)c1,23.5%,–,–
O=S1(=O)CCC(N=Cc2cc(Br)ccc2O)C1 (configuration not stated),–,"0.92 µM [falling, full curve, poor fit]","0.651 µM [falling, full curve]"
Nc1nonc1C(=O)NCCNCc1cc(Br)ccc1OCc1ccccc1F,-11.6%,"0.58 µM [rising, single point]","29.1 µM [falling, single point]"
O=C(NCc1cccs1)C1CC(=O)N(c2ccc(F)cc2)C1 (configuration not stated),2.28%,–,–
COc1ccc(NC(=O)CSc2nncn2C)cc1,35.6%,"29.1 µM [rising, partial curve]","11.6 µM [rising, partial curve]"

# 11 successive records from above, quoted:
Compound,cell number change,AC50 [1],AC50 [2]
CCN1CCN(C(=O)c2ccc3c(c2)N(Cc2ccccc2F)C(=O)c2ccccc2S3(=O)=O)CC1,–,–,"0.00411 µM [rising, full curve, poor fit]"
COc1cc(NC(=O)C2CC(c3ccccc3Cl)=NO2)cc(OC)c1OC (configuration not stated),-40.4%,"0.0411 µM [falling, full curve, poor fit]",–
COc1ccc2cc(C)c(SCC(=O)Nc3cc(C)on3)nc2c1,26%,–,–
Cc1cc(Oc2cc(N)cc([N+](=O)[O-])c2)ccc1Cl,-55.2%,"2.91 µM [rising, single point]","32.6 µM [falling, single point]"
CC(C)(C)NC(=O)CN(Cc1cccnc1)C(=O)c1csnn1,-21.9%,"0.00731 µM [falling, full curve, poor fit]","6.51 µM [rising, single point]"
CC1CCN(S(=O)(=O)c2ccc3nc(N4CCN(c5ccccc5)CC4)ccc3c2)CC1,-13.7%,–,"14.6 µM [rising, partial curve]"
c1ccc2c(c1)CCc1snnc1-2,20.8%,–,"29.1 µM [rising, single point]"
COc1ccc(NC(=O)CCSc2ccc(C)cc2)cc1,6.59%,–,"0.184 µM [rising, partial curve]"
O=C(/C(=C/O)N=Nc1ccccc1Cl)c1ccccc1,-64.7%,"29.1 µM [falling, single point]","29.1 µM [falling, single point]"
COc1cccc2cc(C(=O)NC(C)C3CCCO3)c(=O)oc12 (configuration not stated),45.6%,"4.11 µM [rising, full curve]",–
NC(=O)c1cc2c3ccccc3ccn2c1-c1ccccc1,-2.44%,–,"29.1 µM [falling, single point]"

# (further entries)

Compound,cell number change,AC50 [1],AC50 [2]
Cc1ccc(C(=O)N/N=C/c2ccc(OC(=O)c3ccccc3Cl)cc2)cn1,497%,"29.1 µM [rising, partial curve]","5.17 µM [rising, single point]"
COc1cc(CNC(C)c2ccccc2)cc(Cl)c1OCC(=O)Nc1ccccc1 (configuration not stated),-65.3%,"35.5 µM [falling, single point]","25.1 µM [falling, single point]"
CCOC(=O)N1CCN(C2=C(NS(=O)(=O)c3ccccc3)C(=O)c3ccccc3C2=O)CC1,-8.96%,–,"6.51 µM [falling, single point]"
CC(NC(=O)C1CCCN1S(=O)(=O)c1ccc2c(c1)n(C)c(=O)c(=O)n2C)c1ccccc1 (configuration not stated),-26.9%,–,"2.06 µM [rising, partial curve]"
O=C(Cn1ncc2c1-c1ccccc1OC2)Nc1nc2ccccc2s1,-6.14%,–,"29.1 µM [falling, single point]"
Cc1cccc(N(CC(=O)N2CCCC2)S(C)(=O)=O)c1,23%,–,"29.1 µM [rising, single point]"
CCCC[C@@H]1CNCCN1CCc1cccc(F)c1,11%,–,"29.1 µM [rising, single point]"
O=C1N=C2SCCN2/C1=C\c1c(Cl)cccc1Cl,62.2%,"29.1 µM [rising, single point]",–
O=C(c1cnccn1)N(Cc1ccco1)C1(C(=O)NC2CCCC2)CCCCC1,10.1%,–,"29.1 µM [rising, single point]"
Cc1ccc(C2=NN(C(=O)COc3ncnc4ccccc34)C(c3ccco3)C2)cc1 (configuration not stated),4.78%,"4.61 µM [rising, single point]","4.11 µM [rising, partial curve]"
Cc1ccccc1-n1c(SC(C)C(N)=O)nnc1-c1cccnc1 (configuration not stated),8.88%,–,"0.0651 µM [falling, full curve, poor fit]"
COc1ccc(CNC(=O)C(C)OC(=O)c2cccn2C)cc1 (configuration not stated),13.4%,–,–
Cc1cc(C)cc(NC2=C(N)C(=O)c3ccccc3C2=O)c1,-31%,"0.231 µM [falling, partial curve, poor fit]","0.651 µM [falling, full curve]"
COCCn1c(SCCCC(=O)c2ccc(Br)cc2)nnc1-c1ccncc1,239%,"18.4 µM [rising, single point]","29.1 µM [rising, single point]"
O=C(NC(=S)NCc1cccnc1)c1cc(Br)ccc1Cl,-25.8%,–,"1.16 µM [falling, full curve]"
O=C(/C=C/c1ccc(F)cc1)NCCCn1ccnc1,14.8%,–,"29.1 µM [rising, single point]"
NNc1nc(N)c2c(n1)-c1ccccc1CC21CCCC1,2.62%,–,"0.184 µM [rising, single point]"
O=C(OCc1ccc(F)cc1Cl)c1ccccn1,-35.4%,"32.6 µM [falling, single point]",–
CC(=O)c1ccc(NC(=O)c2cccc(N3C(=O)c4ccccc4C3=O)c2)cc1,-0.431%,–,"0.58 µM [rising, single point]"
COc1ccc2cc(C(=O)NCc3ccccc3)c(=Nc3ccc(C(=O)O)cc3)oc2c1,23.7%,"0.326 µM [rising, full curve, poor fit]","2.59 µM [rising, partial curve, poor fit]"

Compound,cell number change,AC50 [1],AC50 [2]
CN(CC(=O)Nc1ccc(S(=O)(=O)N2CCCC2)cc1)CC(=O)Nc1ccc(F)c(F)c1F,-0.481%,–,"0.461 µM [rising, full curve, poor fit]"
COc1ccccc1NC(=O)C1C2C=CC(O2)C1C(=O)O (configuration not stated),36.5%,"18.4 µM [rising, single point]","29.1 µM [rising, single point]"
COc1ccc(S(=O)(=O)N2CCCC2C(=O)NCC(=O)Nc2cccc(Cl)c2C)cc1 (configuration not stated),–,–,"5.17 µM [rising, single point]"
O=C(c1ccc2nc[nH]c2c1)N1CCN(S(=O)(=O)c2cccc(F)c2)CC1,-21.9%,–,"20.6 µM [falling, single point]"
O=C(N/C(=C/C=C/c1ccccc1)C(=O)N1CCOCC1)c1ccccc1Cl,41.3%,"20.6 µM [rising, single point]",–
CCOC(=O)N1CCN(C(=O)c2ccc3c(=O)n(Cc4ccc(Cl)cc4)c(=S)[nH]c3c2)CC1,-16.8%,–,"29.1 µM [falling, partial curve, poor fit]"
CN(C)c1ccc(C=C(c2nnnn2-c2ccccc2)c2nnnn2-c2ccccc2)cc1,14.9%,–,"0.0731 µM [rising, full curve]"
COc1cc(NC(=O)CCN2CC(C)OC(C)C2)cc(OC)c1 (configuration not stated),23%,–,–
COc1ccc(S(=O)(=O)N2CCOCC2)cc1NC(=O)/C=C/c1ccc(F)cc1,-75%,"0.231 µM [falling, full curve, poor fit]",–
CNc1oc(Cc2cccc3ccccc23)nc1C#N,6.23%,–,–
COc1ccc2nc(NC3=NC(C(=O)Nc4ccc(C)cc4)CC(=O)N3)nc(C)c2c1 (configuration not stated),-15.4%,"6.51 µM [rising, single point]",–
Cc1cccc(Oc2ccccc2NC(=O)c2cnccn2)c1,–,"1.03 µM [rising, partial curve]","0.366 µM [rising, partial curve, poor fit]"
CCC(C)NC(=S)N(CCc1ccccc1)Cc1cc2cc(OC)c(OC)cc2[nH]c1=O (configuration not stated),55.4%,"0.92 µM [rising, full curve]","23.1 µM [falling, partial curve]"
O=C(NCCN1C(=O)CSC1=O)C1CC(=O)N(c2ccccc2)C1 (configuration not stated),-36.4%,"0.0731 µM [falling, full curve, poor fit]","1.64 µM [falling, partial curve]"
CC(=O)C1=C(C)NC(=O)NC1c1ccccc1OCC(=O)NCCc1ccccc1 (configuration not stated),94.8%,"14.6 µM [rising, partial curve]",–
Cc1cc(N2CCN(c3ccccc3)CC2)nc(-c2ccccc2)n1,-11.4%,–,–
O=C(/C=C/c1ccccc1)NC(=S)Nc1cccnc1,-24.5%,–,"3.26 µM [falling, full curve]"
CSc1ccc(CNc2nc3ccccc3n3cnnc23)cc1,-4.91%,–,–
O=C(Oc1nsnc1N1CCOCC1)N(c1ccccc1)c1ccccc1,32.9%,"0.92 µM [rising, full curve, poor fit]","29.1 µM [falling, partial curve]"
